# According to PubChem BioAssay AID296 (DTP/NCI, 2004):
# The list is a part of this screen's results and no random one: it is rich in T/C values a quarter to a half above the control, in often repeated tests (any T/C) and in doses without a T/C. Further doses and runs are listed elsewhere. T/C is the treated group as % of the vehicle group. Schedules are NCI's codes, taken here to give the interval after Q, in days (D) or hours (H), and the number of doses after X. Some T/C values are negative: the treated tumours shrank. Some entries were tested several times; their values stand side by side, smallest first. Some T/C values carry the count of animals alive at the toxicity check (mostly the fifth day); without a count, all were alive then. Some entries give survivors of the animals treated and no T/C: the source holds a T/C of zero for them, seemingly a mark for toxic or unscored doses. Survivors were counted at the toxicity check, usually on the fifth day, unless a day is given; later deaths do not show. *1 amine or outer side, *2 acyl side, *3 side chain or, on linkers, in order; H or OH if unused. Where a SMILES comes first, the peptide text is derived from it. Bridges are numbered along the chain shown (N, C = ends). Roman numbers before positions name the chains, in order. [ ]: non-standard residue; d: D form. Actinocin(9to1) = Cc1c2oc3c(C)ccc(C(=O)[*:1])c3nc-2c(C(=O)[*:2])c(N)c1=O; aThr = C[C@H](O)[C@H](N)C(=O)O; NMeV = CN[C@H](C(=O)O)C(C)C; Sar = CNCC(=O)O
# Tested on: MX-1 breast xenograft, nude mice, tumor weight T/C
# Assay: NCI In Vivo Anticancer Drug Screen. Data for tumor model Human Mammary Carcinoma MX-1 Xenograft (intrarenal inoculation) in NU/NU Swiss (nude) mice
# Details: T/C endpoint: mean tumor weight change, higher T/C = larger tumour; for T/C: evaluated on day 11
# Method in brief: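 Read-out: treated (T) over vehicle control (C) ratio of survival or tumor size. Dosing in animals carrying the transplanted tumor.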
# [1] = dose: 200.0 mg/kg/injection, schedule: Q01DX010 (sc), vehicle: saline with Tween-80
# [2] = dose: 200.0 mg/kg/injection, schedule: Q04DX003 (sc), vehicle: Klucel (hydroxypropylcellulose) (HPC)
# [3] = dose: 1.0 mg/kg/injection, schedule: Q01DX010 (sc), vehicle: saline
# [4] = dose: 600.0 mg/kg/injection, schedule: Q04DX003 (ip), vehicle: saline with Tween-80
# [5] = dose: 1200.0 mg/kg/injection, schedule: Q04DX003 (ip), vehicle: saline with Tween-80
# [6] = dose: 1200.0 mg/kg/injection, schedule: Q04DX003 (sc), vehicle: suspension in saline
# [7] = dose: 200.0 mg/kg/injection, schedule: Q01DX010 (sc), vehicle: saline
# [8] = dose: 400.0 mg/kg/injection, schedule: Q01DX010 (sc), vehicle: saline
# [9] = dose: 1200.0 mg/kg/injection, schedule: Q04DX003 (sc), vehicle: saline with Tween-80
structure (smiles),measurement,setting,value
CC1C=NNC1=O (configuration not stated),T/C,[1],134 % of control
O=C[C@@H](CO)O[C@H](C=O)c1c[nH]c(=O)[nH]c1=O,survivor count,"dose: 150.0 mg/kg/injection, schedule: Q04DX003 (ip), vehicle: saline",3 of 6 on day 11
CN(C)N=Nc1ccccc1,survivor count,[2],2 of 6 on day 11
same,survivor count,"dose: 400.0 mg/kg/injection, schedule: Q04DX003 (sc), vehicle: Klucel (hydroxypropylcellulose) (HPC)",0 of 6 on day 11
same,survivor count,"dose: 800.0 mg/kg/injection, schedule: Q04DX003 (sc), vehicle: Klucel (hydroxypropylcellulose) (HPC)",0 of 6 on day 11
N#Cc1cn(C2OC(CO)C(O)C2O)c2ncnc(N)c12 (configuration not stated),T/C,"dose: 0.25 mg/kg/injection, schedule: Q01DX010 (sc), vehicle: saline",129 % of control
same,survivor count,[3],0 of 3 on day 11
same,survivor count,"dose: 2.0 mg/kg/injection, schedule: Q01DX010 (sc), vehicle: saline",0 of 3 on day 11
COc1cccc2c1C(=O)c1c(O)c3c(c(O)c1C2=O)C[C@@](O)(C(=O)CO)C[C@@H]3OC1CC(OC(C)=O)C(OC(C)=O)C(C)O1 (some centres not stated),survivor count,"dose: 25.0 mg/kg/injection, schedule: Q01DX010 (sc), vehicle: distilled water + Tween-80",1 of 3 on day 11
same,survivor count,"dose: 50.0 mg/kg/injection, schedule: Q01DX010 (sc), vehicle: distilled water + Tween-80",0 of 3 on day 11
c1ccc(OCC2CO2)c(OCC2CO2)c1 (configuration not stated),survivor count,[4],2 of 6 on day 11
same,survivor count,[5],0 of 6 on day 11
CC(C)=CCNc1ncnc2c1ncn2C1OC(CO)C(O)C1O (configuration not stated),T/C,"dose: 200.0 mg/kg/injection, schedule: Q04DX003 (sc), vehicle: suspension in saline",127 % of control
same,T/C,"dose: 400.0 mg/kg/injection, schedule: Q04DX003 (sc), vehicle: suspension in saline",125 % of control
same,survivor count,"dose: 800.0 mg/kg/injection, schedule: Q04DX003 (sc), vehicle: suspension in saline",3 of 6 on day 11
Nc1ncn(C2OC(CO)C(O)C2O)c(=O)n1 (configuration not stated),T/C,"dose: 0.19 mg/kg/injection, schedule: Q01DX010 (sc), vehicle: saline",144 % of control [2 of 2 alive on day 11]
same,survivor count,"dose: 1.5 mg/kg/injection, schedule: Q01DX010 (sc), vehicle: saline",0 of 3 on day 11
same,survivor count,"dose: 3.0 mg/kg/injection, schedule: Q01DX010 (sc), vehicle: saline",0 of 3 on day 11
same,survivor count,"dose: 6.0 mg/kg/injection, schedule: Q01DX010 (sc), vehicle: saline",0 of 3 on day 11
same,survivor count,"dose: 12.0 mg/kg/injection, schedule: Q01DX010 (sc), vehicle: saline",0 of 3 on day 11
same,survivor count,"dose: 20.0 mg/kg/injection, schedule: Q04DX003 (sc), vehicle: saline",1 of 6 on day 11
same,survivor count,"dose: 40.0 mg/kg/injection, schedule: Q04DX003 (sc), vehicle: saline",3 of 6 on day 11
same,T/C,"dose: 150.0 mg/kg/injection, schedule: Q04DX003 (sc), vehicle: suspension in saline","-56, 6, 10 % of control"
same,T/C,"dose: 300.0 mg/kg/injection, schedule: Q04DX003 (sc), vehicle: suspension in saline","1, 2, 3 % of control"
same,T/C,"dose: 600.0 mg/kg/injection, schedule: Q04DX003 (sc), vehicle: suspension in saline","-81 [4 of 6 alive on day 11], -59, -30, -7 % of control"
same,T/C,[6],"-69 [5 of 6 alive on day 11], -66, 2 % of control [5 of 6 alive on day 11]"
same,survivor count,[6],2 of 5 on day 11
same,survivor count,"dose: 1600.0 mg/kg/injection, schedule: Q04DX003 (sc), vehicle: suspension in saline",3 of 6 on day 11
"Cc1c2oc3c(C)ccc(C(=O)N[C@@H]4C(=O)N[C@H](C(C)C)C(=O)N5CCC[C@H]5C(=O)N(C)CC(=O)N(C)[C@@H](C(C)C)C(=O)O[C@H]4C)c3nc-2c(C(=O)N[C@@H]2C(=O)N[C@H](C(C)C)C(=O)N3CCC[C@H]3C(=O)N(C)CC(=O)N(C)[C@@H](C(C)C)C(=O)O[C@H]2C)c(N)c1=O (I: [aThr][dV]P[Sar][NMeV] / II: [aThr][dV]P[Sar][NMeV]; ester I:1-I:C, II:1-II:C; linker I:N-II:N via Actinocin(9to1))",survivor count,"dose: 2.0 mg/kg/injection, schedule: Q04DX003 (sc), vehicle: saline",0 of 6 on day 11
same,survivor count,"dose: 200.0 micrograms/kg/injection, schedule: Q01DX010 (sc), vehicle: saline",0 of 3 on day 11
same,survivor count,"dose: 400.0 micrograms/kg/injection, schedule: Q01DX010 (sc), vehicle: saline",0 of 3 on day 11 and 0 of 6 on day 11
same,survivor count,"dose: 800.0 micrograms/kg/injection, schedule: Q01DX010 (sc), vehicle: saline",0 of 3 on day 11
C/C(=N/NC(N)=S)c1ccc2ccccc2c1,survivor count,[1],1 of 3 on day 11
CC1/C=C/C=C/CC/C=C/C=C/C=C/C=C/C(OC2OC(C)C(O)C(N)C2O)CC2OC(CC(O)C(O)CCC(O)CC(O)CC(O)CC(=O)OC(C)C(C)C1O)CC(O)C2C(=O)O (configuration not stated),survivor count,[4],3 of 6 on day 11
same,survivor count,[5],2 of 5 on day 11
C1CC[N-]CC1.[Cl][Pt+2][Cl].[NH-]C1CC1,survivor count,"dose: 100.0 mg/kg/injection, schedule: Q04DX003 (sc), vehicle: Klucel (hydroxypropylcellulose) (HPC)",2 of 6 on day 11
same,survivor count,[2],0 of 6 on day 11
same,survivor count,"dose: 200.0 mg/kg/injection, schedule: Q04DX003 (sc), vehicle: water",2 of 4 on day 11
Nc1cc2[nH]cnc2c(=O)[nH]1,survivor count,[7],0 of 3 on day 11
same,survivor count,[8],0 of 3 on day 11
same,survivor count,"dose: 400.0 mg/kg/injection, schedule: Q01DX010 (sc), vehicle: suspension in saline",2 of 6 on day 15
C1=CCOCOC1,survivor count,"dose: 600.0 mg/kg/injection, schedule: Q04DX003 (sc), vehicle: saline with Tween-80",0 of 6 on day 11
same,survivor count,[9],0 of 6 on day 11
O=C1CN(Cc2ccc3c(c2)OCO3)NO1,survivor count,[9],3 of 6 on day 11
C/C(=C\c1ccccc1)[N+](=O)[O-],survivor count,"dose: 400.0 mg/kg/injection, schedule: Q01DX010 (sc), vehicle: Klucel (hydroxypropylcellulose) (HPC)",1 of 3 on day 11
same,survivor count,"dose: 800.0 mg/kg/injection, schedule: Q01DX010 (sc), vehicle: Klucel (hydroxypropylcellulose) (HPC)",0 of 3 on day 11
c1cc2c(c(CC3CO3)c1CC1CO1)OCCOCCOCCOCCO2 (configuration not stated),survivor count,"dose: 600.0 mg/kg/injection, schedule: Q04DX003 (ip), vehicle: saline + alcohol",0 of 6 on day 11
C(CSC1=NCCN1)CSC1=NCCN1,T/C,"dose: 100.0 mg/kg/injection, schedule: Q01DX010 (sc), vehicle: saline",133 % of control
same,survivor count,[7],0 of 3 on day 11
same,survivor count,[8],0 of 3 on day 11
C[Si](C)(C)n1nnn(-c2ccccc2)c1=O,T/C,"dose: 300.0 mg/kg/injection, schedule: Q04DX003 (sc), vehicle: saline with Tween-80",135 % of control
N#CCCN(C(=S)Nc1cccc(C(F)(F)F)c1)C1CCCCC1,T/C,"dose: 600.0 mg/kg/injection, schedule: Q04DX003 (sc), vehicle: Klucel (hydroxypropylcellulose) (HPC)",149 % of control
same,T/C,"dose: 1200.0 mg/kg/injection, schedule: Q04DX003 (sc), vehicle: Klucel (hydroxypropylcellulose) (HPC)",137 % of control
COc1c(CNC(=O)CCl)cc2[nH]c(C)cc2c1CNC(=O)CCl,T/C,"dose: 500.0 mg/kg/injection, schedule: Q04DX003 (sc), vehicle: Klucel (hydroxypropylcellulose) (HPC)",137 % of control
COc1cccc2c1C(=O)c1c(O)c3c(c(O)c1C2=O)C[C@@](O)(C(C)=O)C[C@@H]3OC1CC(N)C(O)C(C)O1 (some centres not stated),T/C,[3],138 % of control
same,survivor count,"dose: 8.0 mg/kg/injection, schedule: Q01DX010 (sc), vehicle: saline",1 of 3 on day 11
same,survivor count,"dose: 16.0 mg/kg/injection, schedule: Q01DX010 (sc), vehicle: saline",0 of 3 on day 11
